No constants are given. Whether binding was seen depends on the method and setting. Binding seen in cells or lysates may run through a third protein. Here binding means that the protein was enriched with, or labelled near, the bait; the list need not be complete.

Chains of the proteins cited; added tags and fusions are not shown.
UniProt Q13535: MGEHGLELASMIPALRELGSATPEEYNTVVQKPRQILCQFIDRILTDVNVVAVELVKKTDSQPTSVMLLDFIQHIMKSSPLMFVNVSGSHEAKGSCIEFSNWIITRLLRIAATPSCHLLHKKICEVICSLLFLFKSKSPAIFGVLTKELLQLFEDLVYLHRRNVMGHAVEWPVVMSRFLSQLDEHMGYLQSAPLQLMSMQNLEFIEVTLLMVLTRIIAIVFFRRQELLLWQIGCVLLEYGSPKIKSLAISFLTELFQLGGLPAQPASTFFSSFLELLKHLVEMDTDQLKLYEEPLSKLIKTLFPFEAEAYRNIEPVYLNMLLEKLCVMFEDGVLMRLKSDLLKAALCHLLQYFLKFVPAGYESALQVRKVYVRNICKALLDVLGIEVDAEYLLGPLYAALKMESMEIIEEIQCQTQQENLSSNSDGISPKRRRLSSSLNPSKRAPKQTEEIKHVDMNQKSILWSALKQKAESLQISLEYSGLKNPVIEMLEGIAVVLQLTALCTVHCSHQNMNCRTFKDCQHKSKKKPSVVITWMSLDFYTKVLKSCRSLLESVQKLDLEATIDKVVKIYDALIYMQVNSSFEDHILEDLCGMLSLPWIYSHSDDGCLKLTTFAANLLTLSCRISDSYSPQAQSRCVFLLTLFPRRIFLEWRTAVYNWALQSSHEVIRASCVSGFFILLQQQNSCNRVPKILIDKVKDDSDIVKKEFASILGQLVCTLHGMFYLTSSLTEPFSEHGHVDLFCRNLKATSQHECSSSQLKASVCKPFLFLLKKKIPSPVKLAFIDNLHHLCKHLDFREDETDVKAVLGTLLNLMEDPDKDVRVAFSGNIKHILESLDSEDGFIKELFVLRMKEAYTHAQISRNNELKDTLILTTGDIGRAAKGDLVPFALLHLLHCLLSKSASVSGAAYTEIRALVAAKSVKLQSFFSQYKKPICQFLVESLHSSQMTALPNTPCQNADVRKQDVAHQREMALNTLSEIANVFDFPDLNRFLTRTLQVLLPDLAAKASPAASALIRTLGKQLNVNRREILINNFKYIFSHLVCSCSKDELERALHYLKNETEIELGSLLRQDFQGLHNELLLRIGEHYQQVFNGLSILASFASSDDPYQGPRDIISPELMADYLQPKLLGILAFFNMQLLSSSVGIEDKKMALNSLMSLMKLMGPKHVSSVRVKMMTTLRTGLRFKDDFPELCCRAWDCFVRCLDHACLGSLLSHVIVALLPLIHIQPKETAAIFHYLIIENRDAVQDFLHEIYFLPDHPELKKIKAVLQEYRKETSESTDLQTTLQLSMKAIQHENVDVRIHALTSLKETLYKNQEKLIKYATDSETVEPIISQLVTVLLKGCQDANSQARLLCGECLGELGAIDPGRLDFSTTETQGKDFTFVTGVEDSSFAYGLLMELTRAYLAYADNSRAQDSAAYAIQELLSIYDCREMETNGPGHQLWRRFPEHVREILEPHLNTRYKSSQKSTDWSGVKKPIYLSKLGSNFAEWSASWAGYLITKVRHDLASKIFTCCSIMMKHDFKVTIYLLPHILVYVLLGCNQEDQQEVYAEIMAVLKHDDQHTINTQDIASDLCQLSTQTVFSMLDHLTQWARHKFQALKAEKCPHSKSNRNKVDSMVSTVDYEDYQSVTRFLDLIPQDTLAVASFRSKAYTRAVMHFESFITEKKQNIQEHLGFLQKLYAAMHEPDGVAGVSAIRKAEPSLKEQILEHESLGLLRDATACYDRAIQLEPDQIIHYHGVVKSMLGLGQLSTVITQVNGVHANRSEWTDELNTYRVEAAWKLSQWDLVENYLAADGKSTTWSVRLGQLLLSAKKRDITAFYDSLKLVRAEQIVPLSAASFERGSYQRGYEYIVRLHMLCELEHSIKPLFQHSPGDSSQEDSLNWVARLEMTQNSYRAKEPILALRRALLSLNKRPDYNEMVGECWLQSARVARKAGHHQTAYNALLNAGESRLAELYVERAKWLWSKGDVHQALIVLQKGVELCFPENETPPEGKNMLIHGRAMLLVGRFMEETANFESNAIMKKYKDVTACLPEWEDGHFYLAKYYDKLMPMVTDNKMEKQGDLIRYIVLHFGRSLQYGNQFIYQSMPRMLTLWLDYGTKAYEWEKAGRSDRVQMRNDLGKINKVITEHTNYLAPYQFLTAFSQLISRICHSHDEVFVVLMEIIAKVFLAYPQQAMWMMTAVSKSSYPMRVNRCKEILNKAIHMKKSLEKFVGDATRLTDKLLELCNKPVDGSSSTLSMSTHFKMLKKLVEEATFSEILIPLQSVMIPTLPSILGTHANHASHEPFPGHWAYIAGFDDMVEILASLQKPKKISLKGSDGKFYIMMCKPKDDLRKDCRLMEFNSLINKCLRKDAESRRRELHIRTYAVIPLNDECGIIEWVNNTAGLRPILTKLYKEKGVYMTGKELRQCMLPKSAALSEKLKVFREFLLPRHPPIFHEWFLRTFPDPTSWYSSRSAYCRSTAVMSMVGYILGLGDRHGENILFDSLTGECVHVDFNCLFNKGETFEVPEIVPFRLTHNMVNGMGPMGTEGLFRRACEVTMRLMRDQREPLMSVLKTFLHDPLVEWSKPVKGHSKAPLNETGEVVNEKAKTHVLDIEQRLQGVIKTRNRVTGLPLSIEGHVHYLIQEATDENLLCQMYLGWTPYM

In this assay the target is ATR (endogenous) (human (endogenous in HEK293T and H1975)) (UniProt Q13535). Nature of the assay: affinity purification with mass spectrometry; immunoprecipitation with an ATR-specific antibody from HEK293T cells, immunoprecipitates analysed by mass spectrum.

B1: GST-tagged FOXP1 (wild type, full length) (natural protein, human, UniProt Q9H334 1-677, looked up)
chain: MMQESGTETKSNGSAIQNGSGGSNHLLECGGLREGRSNGETPAVDIGAADLAHAQQQQQQALQVARQLLLQQQQQQQVSGLKSPKRNDKQPALQVPVSVAMMTPQVITPQQMQQILQQQVLSPQQLQVLLQQQQALMLQQQQLQEFYKKQQEQLQLQLLQQQHAGKQPKEQQQVATQQLAFQQQLLQMQQLQQQHLLSLQRQGLLTIQPGQPALPLQPLAQGMIPTELQQLWKEVTSAHTAEETTGNNHSSLDLTTTCVSSSAPSKTSLIMNPHASTNGQLSVHTPKRESLSHEEHPHSHPLYGHGVCKWPGCEAVCEDFQSFLKHLNSEHALDDRSTAQCRVQMQVVQQLELQLAKDKERLQAMMTHLHVKSTEPKAAPQPLNLVSSVTLSKSASEASPQSLPHTPTTPTAPLTPVTQGPSVITTTSMHTVGPIRRRYSDKYNVPISSADIAQNQEFYKNAEVRPPFTYASLIRQAILESPEKQLTLNEIYNWFTRMFAYFRRNAATWKNAVRHNLSLHKCFVRVENVKGAVWTVDEVEFQKRRPQKISGNPSLIKNMQSSHAYCTPLNAALQASMAENSIPLYTTASMGNPTLGNLASAIREELNGAMEHTNSNESDSSPGRSPMQAVHPVHVKEEPLDPEEAEGPLSLVTTANHSPDFDHDRDYEDEPVNEDME
notes: FOXP1, human, full length; Vector pGEX-4T-1; also called GST-FOXP1; pGEX-4T-1-FOXP1; source: E. coli, purified
Turning to B1, the binding result is “binds”.
